{
  "source": "patent US8513229B2",
  "about": "“4-Azetidinyl-1-phenyl-cyclohexane antagonists of CCR2” (Janssen Pharmaceutica NV, priority 2009, dated 2013)",
  "key": {"cell migration": {"system": "cell migration", "test": "Murine In vivo Cell Migration Assay", "settings": "30 mpk, P.O. bid; human MCP-1 on small bowel serosa, 24 hours"}, "[1]": {"system": "thioglycollate-induced peritonitis", "test": "Thiolycollate-Induced Peritonitis in Mice", "settings": "30 mpk, p.o. bid; 72-hour time point, leukocytes in peritoneal lavage vs vehicle"}},
  "note": "For some assays here: At least one compound was matched to its structure with a doubt left. Some results were stated once for a whole list of compounds, not compound by compound.",
  "data": [
    {"smiles": "O=C(CNC(=O)c1cccc(C(F)(F)F)c1)NC1CN(C2CCC(c3ccc4c(c3)OCO4)CC2)C1", "note": "(centres unmarked) [Example #1, N-{[1-(4-Benzo[1,3]dioxol-5-yl-cyclohexyl)-azetidin-3-ylcarbamoyl]-methyl}-3-trifluoromethyl-benzamide]", "values": [
      {"measurement": "blocking cell migration (efficacious if the inhibition of cell migration reaches 30% compared with vehicle-treated animals)", "setting": "cell migration", "result": "efficacious"},
      {"measurement": "inhibition of thioglycollate-induced peritonitis", "setting": "[1]", "result": "> 50", "unit": "%"}
    ]}
  ]
}
